# Reference: patent US20250095772A1, “METHOD FOR IMPROVING THROUGHPUT OF COMPOUND-PROTEIN INTERACTION EXPERIMENTS” (SOUTHERN UNIVERSITY OF SCIENCE AND TECHNOLOGY, priority 2022, published 2025)
# System: K562 cell lysate
# Assay: Single temperature point TPP target identification, 25 drugs pooled into 14 mixture systems (Example 2)
# Type: binding
# Conditions: 25 compounds in 14 mixture systems (each in 4), remaining steps as Example 1 (40 μM, K562 cell lysate, 52° C., LASSO β threshold 0.1); — = no target identified
# Protocol: In step S04: DMSO as a solvent was added to each mixture system in step S03 to enable a concentration of each drug to reach 40 μM, and then the single temperature point TPP method is applied to measure the interaction between each mixture system and the protein. The specific experimental steps are that: equal amounts of K562 cell lysate were mixed with a drug mixture system, incubated at room temperature for 10 minutes, then heated at 52° C. for 3 minutes, and then quickly cooled to 4° C. on a PCR machine. The samples were centrifuged at 21,000 rcf for 20 minutes at 4° C., and the supernatant was collected. According to the mass spectrometry-based proteomics quantification method, each sample was enzymatically digested and TMT labeled, and then the LC-MS mass spectrometry was used for measurement to obtain the content of protein. Based on the principle of the TPP method, the thermal stability of the protein can be improved through a combination with compounds. Therefore, if a protein can interact with the mixed system, then the content of protein measured by mass spectrometry will be higher, and vice versa.
# In step S05: Nine measured values Yi obtained from the interaction between the nine mixture systems and the target protein are marked as response vectors Y; the response vectors Y were normalized so that the numerical values of the response vectors are between 0 and 1. […]
structure (smiles),measurement,value
Cc1ccc(C(=O)NCCCCCC(=O)Nc2ccccc2N)cc1 [RG2833],Successfully Identified Target(s),HDAC1
